At least one structure is not confirmed: it was looked up by name or label, or the drawing left a doubt.
Columns and labels:
[1] = system: NCI-H358 tumors; assay: Tumor xenograft efficacy study, single agent and combinations; format: in vivo, mouse
[2] = system: ERK1/2 phosphorylation in MIA PaCa-2 T2 tumors; assay: Tumor pharmacodynamic assay (p-ERK, MSD immunoassay); format: in vivo, mouse; settings: single dose 10 mg/kg
[3] = system: MIA PaCa-2 T2 tumors; assay: Tumor xenograft efficacy study; format: in vivo, mouse; settings: all dose levels 3-100 mg/kg QD oral; regression at higher doses
[4] = system: SW1573 cells; assay: Spheroid cell viability assay (CellTiter-Glo 3D); format: cell-based, human; settings: co-occurring PIK3CA p.K111E
Method: For spheroid viability assays, 2.5-4.0E+04 cells were seeded per well in 96-well spheroid microplates (Corning) and incubated at 37° C., 5% CO2 for 24 hours. The same procedure was followed as described above, except viability was measured using a CellTiter-Glo® 3D Cell Viability Assay kit (Promega) according to the manufacturer's protocol.

[5] = system: MIA PaCa-2 (pancreas); assay: In vitro two-way combination matrix, growth inhibition, Loewe synergy score; format: cell-based, human

| SMILES | tumor growth, carboplatin combination study ([1]; AMG 510 10 or 30 mg/kg QD oral, carboplatin 50 or 100 mg/kg IP 1x/week) | tumor growth ([1]; all dose levels 3-100 mg/kg QD oral, regression at higher doses) | duration of sustained, significant p-ERK inhibition [2] [h] | tumor growth [3] | sensitivity in spheroid conditions [4] | single agent activity [5] |
| --- | --- | --- | --- | --- | --- | --- |
| C=CC(=O)N1CCN(c2nc(=O)n(-c3c(C)ccnc3C(C)C)c3nc(-c4c(O)cccc4F)c(F)cc23)[C@@H](C)C1 (atropisomer, axis not shown) [AMG 510, 6-fluoro-7-(2-fluoro-6-hydroxyphenyl)-1-(4-methyl-2-(2-propanyl)-3-pyridinyl)-4-((2S)-2-methyl-4-(2-propenoyl)-1-piperazinyl)pyrido[2,3-d]pyrimidin-2(1H)-one] | significant tumor growth inhibition | significantly inhibited the growth | 48 | significantly inhibited the growth | minimally sensitive |  |
| CN(C)C/C=C/C(=O)Nc1cc2c(Nc3ccc(F)c(Cl)c3)ncnc2cc1O[C@H]1CCOC1 [afatinib] |  |  |  |  |  | lack of single agent activity |
